Source: PubChem BioAssay AID1347426 (Functional Genomics Laboratory (NCATS/FGL), 2020)
The campaign covered roughly 31,000 sequences. About 1,400 (4.5%) were called active.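 How the source made its calls: active means median seed-adjusted z-score above 1 or below -1; inactive means the rest.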 Some of the results follow.

test: Novel Modifiers of Survival Motor Neuron (SMN) Protein: Gene Identification via Genome-wide siRNA Screen; settings: HEK293T SMN2-luciferase reporter, siRNA knockdown, 72 h; actives lie on both sides;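 further: luminescence tracks full-length SMN protein made from the SMN2 reporter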
In short: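 HEK293T cells stably carrying an SMN2 promoter/splicing cassette–luciferase reporter were reverse-transfected with 1 pmol siRNA per well (druggable-genome library, 3 siRNAs per gene) and grown 72 h at 37 °C. Luminescence, normalized to negative-control siRNA and log10-transformed, was scored as MAD.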

Row | Sequence | median seed-adjusted z-score
1 | GGAUCCUCCUGUAGCCUUUTT against CIC | inactive: 0.756
2 | GAAGUGUACCAGAUAUAUUTT against ASPA | inactive: -0.138
3 | GCUGCUAUGCCUGACCAUATT against STAMBPL1 | inactive: 0.13
4 | CGUGCAGGAUAAACUCAAATT against TNPO2 | inactive: 0.0785
5 | GCAUAUACUAUUUCGGCUATT against HEATR6 | inactive: 0
6 | GGAACUCCACGGUCAUCUUTT against MCHR1 | inactive: -0.42
7 | GAAGGGCUCUUUCACAGCUTT against ADAMTS13 | inactive: -0.276
8 | CCAUAACCUUAUUGACGCATT against LRFN4 | inactive: -0.076
9 | GGAUGUUUUUCUUCGAAAATT against MAGI3 | inactive: 0.202
10 | GCUCAAUGAAAUCAAUUAUTT against CFB | inactive: 0.132
11 | GACUUUUGCAGACAAAUCATT against CAPZB | inactive: -0.106
12 | GAAGAUGACAUGUACCGUATT against XPA | active: 2.03
13 | CAACGGUAAUUAUCAGUCATT against FABP7 | inactive: 0.562
14 | CGGUGGACACGGUCAUCUATT against NEURL | inactive: -0.268
15 | GUACCAGAAGUAUAAGUUUTT against VBP1 | inactive: 0.317
16 | GUAUCUUCUUAGAAGUGGATT against HEMK1 | inactive: 0.101
17 | GGACAUUUUUGGUGAGAAATT against PKIB | inactive: 0.147
18 | GAACUUAGCUAAAUUGACUTT against BCHE | inactive: 0.117
19 | CGCACUGCAUCAAAAUCCATT against GJD2 | inactive: -0.229
20 | GCAACCUCUUUAUCGAUAATT against SLC35A3 | inactive: 0.321
21 | GAACAAUACAUACUAGCAATT against SGCZ | inactive: 0.0893
22 | ACAACUUCCUGGUCGCUGATT against GPR62 | inactive: 0.0306

Row | Sequence | median seed-adjusted z-score
23 | UGCUGACAGAUCACCCAUATT against DDAH2 | inactive: -0.301
24 | GACGGAAGAUGACUUUGUATT against RNASE4 | inactive: -0.0112
25 | GCUUAUCCAUUGGAACUGUTT against NEK9 | inactive: 0.0698
26 | CUGCAUGAGUAUGACAUGATT against CPSF4 | inactive: 0.298
27 | GAAUCAAUAUAAUCUAGCATT against UBE2Q2 | inactive: 0.146
28 | CAACCUUUUCACUAAGGAATT against USP21 | inactive: 0.248
29 | GACUUAAUGAGGUCAUAAATT against LHCGR | inactive: -0.152
30 | CGACAUGAAUAAGAUCAAUTT against PAPPA | inactive: -0.0169
31 | GGCAUUACGUUUCUAGGUATT against AQP6 | inactive: 0.008
32 | GACUGACAAUUGAGUUACATT against TAF7 | inactive: -0.593
33 | CUAUCACCUGGACUGUAUATT against RNF11 | inactive: -0.365
34 | GGACAAGUAGCAAAGCGAATT against SLC7A14 | inactive: 0.132
35 | GACCUAUGCAGUUCGAAAATT against SFRS1 | active: -1.66
36 | CACCAUUGCAAACCAAAUATT against KCNQ5 | inactive: 0.0191
37 | CAACAGCAGUGUCUAUUUUTT against IL22RA2 | inactive: -0.147
38 | GGGAACAAUUUACAAGUAATT against ZNF233 | inactive: 0.59
39 | GGUAGCUCCAGAUAAGGAATT against DYNLRB2 | inactive: 0.534
40 | GCAUGUCUGACAUAAUGUATT against CYP4A11 | inactive: -0.762
41 | GGAGCAUUCAUGAUCUAGATT against ZNF25 | inactive: -0.145
42 | CUUCACGUGUGUGACCUGCTT against FBLIM1 | inactive: 0.0604
43 | GAACAUCUCUUCGUACUAATT against CCT6A | inactive: -0.286
44 | ACUCCAUGAUCAAUCCCAUTT against GPR6 | inactive: 0

Row | Sequence | median seed-adjusted z-score
45 | GCUUGUUCAUGGACGAGAATT against YARS2 | inactive: 0.0901
46 | GGCUAGUGAUCGACCGUAATT against FADS1 | inactive: -0.905
47 | GCUUCGUCCAGGAAGAUAATT against GPR158 | inactive: 0.198
48 | GCCCGAAAGAGAAAGCGAATT against POU5F1 | inactive: 0.0495
49 | GCCUCAACUACCUUCCUGATT against CCL23 | inactive: -0.285
50 | GCUUUUAGACAAUCCUUAATT against ZNF91 | inactive: 0.105
51 | ACAACAUCAUGAUCCGAGATT against PIK3CD | inactive: 0.00831
52 | ACAGAACCCUGACCAUGUATT against STAT5A | inactive: -0.229
53 | GGUUGUGAUGUGGUAGUUATT against MDH2 | inactive: 0.185
54 | GGACUCGUUUCAUUGCUUUTT against DUSP11 | inactive: -0.0184
55 | CAGAAUGUACGGUGAUAUUTT against EXOSC6 | inactive: 0.354
56 | CAAUGACUGGGCAACAAUATT against DMTF1 | inactive: 0.396
57 | GGCUCUUCCUCUGGGUAAATT against LIF | inactive: 0.273
58 | GUAUGAUUCUCGAGAUAUUTT against SCML2 | inactive: -0.538
59 | CCAUCUUACUCACCAGGAATT against HTR1D | inactive: -0.155
60 | GAUUGAUAGAAGACAAUGATT against FYN | inactive: -0.0476
61 | CAGUGUCAACAAUCAGUGATT against CALCRL | inactive: 0.28
62 | CCAGUGAUGUAAGUUCUUATT against GCG | active: -1.18
63 | GGGUUACAUCAAUUGCAGATT against PRPS2 | inactive: 0.389
64 | GGUUUUUGGAUGCAGCAUATT against CARS2 | inactive: 0
65 | GCAACAAUCUGGGCUAUGATT against LPL | inactive: 0.389
66 | CCUCAUCCCUGUUACAACATT against JAG1 | inactive: -0.32

A second format for some results above:
GAACUUAGCUAAAUUGACUTT against BCHE
  median seed-adjusted z-score: inactive: 0.117
CGCACUGCAUCAAAAUCCATT against GJD2
  median seed-adjusted z-score: inactive: -0.229
GCAACCUCUUUAUCGAUAATT against SLC35A3
  median seed-adjusted z-score: inactive: 0.321
GAACAAUACAUACUAGCAATT against SGCZ
  median seed-adjusted z-score: inactive: 0.0893

Continuation:

Row | Sequence | median seed-adjusted z-score
67 | UGUUGUCGGUGUUCCCGUUTT against OPRL1 | inactive: -0.9
68 | GCAAGAAGAUGACCUACCATT against SPI1 | inactive: 0.384
69 | GGAUGCACCACAUCUAGUATT against RPS6KA3 | inactive: -0.0233
70 | CCAUUGAUGCAACAGGUAATT against USO1 | inactive: 0.21
71 | GAGUUAACGUAUCAGAACATT against LRRFIP1 | inactive: -0.181
72 | ACAAGUUCGGCACAACUUUTT against ALX4 | inactive: -0.121
73 | GGCUACGUCCUGGUCUAUATT against NKIRAS2 | inactive: 0.111
74 | CUACCUGUUUUAAUGCUAATT against GC | inactive: 0.14
75 | AGGUGUUAUUCGUCAUGUUTT against TRPM3 | inactive: -0.633
76 | CAUCAUCUAUGUAAGCCUATT against PRKD1 | inactive: -0.323
77 | CCAGGUUGUUUUACGAAUATT against IDI1 | inactive: -0.0118
78 | GGAAUUACUACUCACCUAUTT against TRHR | inactive: -0.873
79 | AGAUGCCUUUAGAAGAUGATT against NPPA | inactive: -0.897
80 | GCAGGUACAUGUCUUGUCUTT against SPRY2 | inactive: 0.148
81 | GGACCGUCUACUCAUCCAATT against IL8RB | inactive: -0.387
82 | UAACGAGGAUGAUAUUGUATT against RCBTB2 | inactive: 0.235
83 | CUUCAGUUCUAGCGUCAACTT against LTB4R2 | inactive: -0.26
84 | CCAACCGCAUGAUUCCACATT against RBMS3 | inactive: 0.0976
85 | GGCAAUUAAUGGAACAGUUTT against MTMR8 | inactive: -0.416
86 | ACUCGACUUCUGAACUGGATT against TPD52L3 | inactive: 0.552
87 | GCUUAAAGUAUGCAACUAUTT against FPGT | inactive: 0.36
88 | CCACAUGACUUAUUAUGCATT against DCN | inactive: 0.326

Row | Sequence | median seed-adjusted z-score
89 | CCAAUGUGGUACUCAAAAATT against TRIM64 | inactive: -0.024
90 | CGGCCUACUUCUGCAUCUATT against SPHK2 | inactive: 0
91 | CCUAUCAAGUUUGAGCUUUTT against CTGF | inactive: -0.181
92 | CCAGCAUAUCAAUAGAUUATT against SLC25A32 | inactive: -0.299
93 | CCGUACCAAUGUCCCAUGATT against IRF4 | inactive: -0.332
94 | CAGACAUGAAGUAUAAGAATT against TCEA2 | inactive: 0.552
95 | AGGACAUUCCUGCAAUUAATT against ASTL | inactive: 0.722
96 | GCAGAGACUAUUACACGGATT against SGCE | inactive: 0.202
97 | GCAAAGGUGUUGCAUUCUUTT against DCTN5 | inactive: 0.0112
98 | CCAUUUGACCAUAAUGAAUTT against ZNF382 | inactive: 0.601
99 | GAUUGUCUUCGGUCUAUUATT against STAM | inactive: 0
100 | CCCUCAUGAAGAUCAGUGATT against CYP2A6 | inactive: 0.117
101 | CCUCUGUUCGUCUACCUCUTT against FZD7 | inactive: -0.159
102 | GGCUAUCACGCUUCGAGAATT against AP1M1 | inactive: 0.42
103 | GCCCUUGCCUUAUUGCUGATT against MED20 | active: -1.66
104 | GGGAGACGGUAGAAUCAGATT against ATP13A4 | active: -1.09
105 | GGAUUAUUCAUUAUUACAUTT against NDUFB6 | inactive: -0.357
106 | GGUUCAAUGUGGAGACAGUTT against ARF3 | inactive: 0.18
107 | GCCUCAGAGUUCACGGACATT against ROBO4 | inactive: -0.431
108 | CGGGAGAUCUGCCUACUCATT against CDK5 | inactive: 0.402
